Data reported in PubChem BioAssay (EPA / NIEHS).
This list was built around the results that the source calls inconclusive (neither active nor inactive); the mix of calls is not that of the screen. Where the call is inconclusive, the potency comes from a doubtful curve fit. Activity calls are given as the source filed them. Rule for the calls: active = hit-call score of the fitted dose curve at least 0.9, where 1 is the maximum; inconclusive = response in the unintended direction; inactive = score below 0.9.

assay: ATG_M_19_XSP1: Attagene TRANS-FACTORIAL Multi-Species (XSP1) HepG2 Assay for M19 Transcription Factor (Internal Marker) (AID 2283798)
Procedure: ATG_XSP1_multi-species_TRANS is a cell-based, multiplexed assay created by modifying the existing Attagene TRANS-FACTORIAL system to include a panel of nuclear receptors from some or all the following species: human (Homo sapiens), mouse (Mus musculus), frog (Xenopus laevis), zebrafish (Danio rerio), chicken (Gallus gallus), and turtle (Chrysemys picta). The ECOTOX-FACTORIAL format uses HepG2, a human liver cell line, with measurements taken at 24 hours after chemical dosing in a 24-well plate. Xsp1 included 3 nM 6-alpha-fluorotestosterone to partially stimulate the androgen receptor.ATG_M_19_XSP1 is one of 29 assay components measured or calculated from the ATG_XSP1_multi-species_TRANS assay. It is designed to make measurements of mRNA induction, a form of inducible reporter, as detected with fluorescence intensity signals by Reverse transcription polymerase chain reaction (RT-PCR) and Capillary electrophoresis technology.This assay endpoint, ATG_M_19_XSP1, was analyzed in the positive analysis fitting direction relative to DMSO as the negative control and baseline of activity. Using a type of inducible reporter, measures of mRNA for gain-of-signal activity can be used to understand the background control at the transcription factor-level as they relate to the gene. Furthermore, this assay endpoint can be referred to as a secondary readout, because this assay has produced multiple assay endpoints where this one serves a background control function. To generalize the intended target to other relatable targets, this assay endpoint is annotated to the background measurement intended target family, where the subfamily is internal marker.
Human liver HepG2 cells are transiently transfected with multiple reporter transcription units (MRTUs) in 6-well plates using FuGene 6 reagent (Roche; 3 ml FuGene/1 mg DNA). The MRTU constructs are regulated by a cis-regulating element (promoter). […] A major difference between the CIS and TRANS system is that in CIS activities of endogenous TFs are measured, whereas the TRANS assay evaluates changes in activities of exogenous, chimeric NR-Gal4 proteins. […] At the end of 24 hour incubation, total RNA was isolated using TriZol reagent (Invitrogen). The isolated RNA is then reverse-transcribed using oligo(dT) primer and Mo-MLV reverse transcriptase (Invitrogen) with DNAse I (Ambion) treatment for 30 min. The one-tenth of the produced cDNA was amplified by PCR using Taq DNA polymerase (Invitrogen) and two reporter sequence-specific primers. The PCR products were fluorescently labeled by primer extension with 6-arboxyfluorescein (6-FAM) 5'-labeled reporter sequence-specific primer (2 min at 95 C, 20 s at 68 C and 10 min at 72 C) and these products were digested with 5U of HpaI (New England Biolabs) for 2h at 37 C. The fragments were purified using Qiaquick PCR columns (Qiagen), analyzed on an ABI 3130xL genetic analyzer (Applied Biosystems) with peak positions identified by using a set of X-rhodamine (ROX)-labeled MapMarker1000 molecular weight standards (BioVentures). The raw capillary electrophoresis data was processed using Attagraph software (Attagene).

SMILES | outcome | AC50
O=S(=O)(O)C(F)(F)C(F)(F)C(F)(F)C(F)(F)C(F)(F)C(F)(F)C(F)(F)C(F)(F)F | inactive | 
CC(C)(C)CC(C)(C)c1ccc(O)cc1 | inactive | 
CCCCC(CC)COC(=O)c1ccccc1C(=O)OCC(CC)CCCC (stereo not given) | inactive | 
CCCCOC(=O)c1ccccc1C(=O)OCc1ccccc1 | inactive | 
COC(=O)N(OC)c1ccccc1COc1ccn(-c2ccc(Cl)cc2)n1 |  | inconclusive: 10 µM
C#CCC1=C(C)C(OC(=O)C2C(C=C(C)C)C2(C)C)CC1=O (stereo not given) |  | inconclusive: 175 µM
CCOP(=S)(OCC)SCn1c(=O)oc2cc(Cl)ccc21 | inactive | 
OC(c1ccc(Cl)cc1)(c1cncnc1)c1ccccc1Cl (stereo not given) |  | inconclusive: 24.6 µM
CSC(=O)c1c(C(F)F)nc(C(F)(F)F)c(C(=O)SC)c1CC(C)C | inactive | 
CC(C)(c1cc(Cl)c(O)c(Cl)c1)c1cc(Cl)c(O)c(Cl)c1 | inactive | 
O=P(Oc1ccccc1)(Oc1ccccc1)Oc1ccccc1 | inactive | 
C#CC(C)(C)NC(=O)c1cc(Cl)cc(Cl)c1 |  | inconclusive: 0.00769 µM
Clc1ccc(C(c2ccc(Cl)cc2)C(Cl)(Cl)Cl)cc1 | inactive | 
CCOP(=S)(OCC)Oc1ccc2c(C)c(Cl)c(=O)oc2c1 | inactive | 

A second format for some results above:

| SMILES | outcome | AC50 |
| --- | --- | --- |
| OC(c1ccc(Cl)cc1)(c1cncnc1)c1ccccc1Cl (stereo not given) |  | inconclusive: 24.6 µM |
| CSC(=O)c1c(C(F)F)nc(C(F)(F)F)c(C(=O)SC)c1CC(C)C | inactive |  |
